In the supplement of paper PMC8728848:
Some of the results follow.

Tests used:
Assay in all cases: glycan array binding signal (z-score within array); higher = stronger binding
Conditions in all cases: glycan notation: IUPAC condensed, linker removed
[1] = molecular target: Fuc(a1-2)Gal
Method in brief: (§1)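 The binding signal is a Z-score computed within each array. Data were drawn from 3228 arrays in the Consortium for Functional Glycomics database, restricted to those with a known protein sequence. Scores were averaged over arrays of the same protein sequence at different concentrations or buffers, and over linkers, and negative values can be taken as non-binding.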

[2] = molecular target: Fuc(a1-2)Gal(b1-3)GalNAc
Method in brief: as §1

[3] = molecular target: Fuc(a1-2)Gal(b1-3)GalNAc(a1-3)[Fuc(a1-2)]Gal(b1-4)Glc
Method in brief: as §1

[4] = molecular target: Fuc(a1-2)Gal(b1-3)GalNAc(a1-3)[Fuc(a1-2)]Gal(b1-4)GlcNAc
Method in brief: as §1

[5] = molecular target: Fuc(a1-2)Gal(b1-3)GalNAc(b1-3)Gal
Method in brief: as §1

[6] = molecular target: Fuc(a1-2)Gal(b1-3)GalNAc(b1-3)Gal(a1-4)Gal(b1-4)Glc
Method in brief: as §1

[7] = molecular target: Fuc(a1-2)Gal(b1-3)GalNAc(b1-4)[Neu5Ac(a2-3)]Gal(b1-4)Glc
Method in brief: as §1

[8] = molecular target: Fuc(a1-2)Gal(b1-3)GlcNAc
Method in brief: as §1

[9] = molecular target: Fuc(a1-2)Gal(b1-3)GlcNAc(b1-2)Man(a1-3)[Fuc(a1-2)Gal(b1-3)GlcNAc(b1-2)Man(a1-6)]Man(b1-4)GlcNAc(b1-4)GlcNAc
Method in brief: as §1

[10] = molecular target: Fuc(a1-2)Gal(b1-3)GlcNAc(b1-2)Man(a1-3)[Fuc(a1-2)Gal(b1-3)GlcNAc(b1-2)Man(a1-6)]Man(b1-4)GlcNAc(b1-4)[Fuc(a1-6)]GlcNAc
Method in brief: as §1

[11] = molecular target: Fuc(a1-2)Gal(b1-3)GlcNAc(b1-3)Gal(b1-4)Glc
Method in brief: as §1

[12] = molecular target: Fuc(a1-2)Gal(b1-3)GlcNAc(b1-3)GalNAc
Method in brief: as §1

[13] = molecular target: Fuc(a1-2)Gal(b1-3)GlcNAc(b1-3)[Fuc(a1-2)Gal(b1-3)GlcNAc(b1-6)]GalNAc
Method in brief: as §1

[14] = molecular target: Fuc(a1-2)Gal(b1-3)GlcNAc(b1-3)[Gal(b1-4)GlcNAc(b1-6)]Gal(b1-4)Glc
Method in brief: as §1

[15] = molecular target: Fuc(a1-2)Gal(b1-3)GlcNAc(b1-3)[Neu5Ac(a2-6)Gal(b1-4)GlcNAc(b1-6)]Gal(b1-4)Glc
Method in brief: as §1

[16] = molecular target: Fuc(a1-2)Gal(b1-3)GlcNAc6S
Method in brief: as §1

[17] = molecular target: Fuc(a1-2)Gal(b1-3)[Fuc(a1-4)]GlcNAc
Method in brief: as §1

[18] = molecular target: Fuc(a1-2)Gal(b1-3)[Fuc(a1-4)]GlcNAc(b1-2)Man(a1-3)[Fuc(a1-2)Gal(b1-3)[Fuc(a1-4)]GlcNAc(b1-2)Man(a1-3)]Man(b1-4)GlcNAc(b1-4)GlcNAc
Method in brief: as §1

[19] = molecular target: Fuc(a1-2)Gal(b1-3)[Fuc(a1-4)]GlcNAc(b1-2)Man(a1-3)[Fuc(a1-2)Gal(b1-3)[Fuc(a1-4)]GlcNAc(b1-2)Man(a1-6)]Man(b1-4)GlcNAc(b1-4)[Fuc(a1-6)]GlcNAc(b1-4)[Fuc(a1-6)]GlcNAc
Method in brief: as §1

[20] = molecular target: Fuc(a1-2)Gal(b1-3)[Fuc(a1-4)]GlcNAc(b1-3)[Fuc(a1-3)[Gal(b1-4)]GlcNAc(b1-6)]Gal(b1-4)Glc
Method in brief: as §1

[21] = molecular target: Fuc(a1-2)Gal(b1-3)[Fuc(a1-4)]GlcNAc(b1-3)[Gal(b1-4)GlcNAc(b1-6)]Gal(b1-4)Glc
Method in brief: as §1

[22] = molecular target: Fuc(a1-2)Gal(b1-4)Fuc(a1-3)]GlcNAc(b1-2)Man(a1-3)[Fuc(a1-2)Gal(b1-4)[Fuc(a1-3)]GlcNAc(b1-2)Man(a1-6)]Man(b1-4)GlcNAc(b1-4)GlcNAc
Method in brief: as §1

[23] = molecular target: Fuc(a1-2)Gal(b1-4)Glc
Method in brief: as §1

[24] = molecular target: Fuc(a1-2)Gal(b1-4)Glc6S
Method in brief: as §1

[25] = molecular target: Fuc(a1-2)Gal(b1-4)GlcNAc
Method in brief: as §1

[26] = molecular target: Fuc(a1-2)Gal(b1-4)GlcNAc(b1-2)Man
Method in brief: as §1

[27] = molecular target: Fuc(a1-2)Gal(b1-4)GlcNAc(b1-2)Man(a1-3)[Fuc(a1-2)Gal(b1-4)GlcNAc(b1-2)Man(a1-6)]Man(b1-4)GlcNAc(b1-4)GlcNAc
Method in brief: as §1

[28] = molecular target: Fuc(a1-2)Gal(b1-4)GlcNAc(b1-2)Man(a1-3)[Fuc(a1-2)Gal(b1-4)GlcNAc(b1-2)Man(a1-6)]Man(b1-4)GlcNAc(b1-4)[Fuc(a1-6)]GlcNAc
Method in brief: as §1

[29] = molecular target: Fuc(a1-2)Gal(b1-4)GlcNAc(b1-2)[Fuc(a1-2)Gal(b1-4)GlcNAc(b1-4)]Man(a1-3)[Fuc(a1-2)Gal(b1-4)GlcNAc(b1-2)Man(a1-6)]Man(b1-4)GlcNAc(b1-4)GlcNAc
Method in brief: as §1

[30] = molecular target: Fuc(a1-2)Gal(b1-4)GlcNAc(b1-3)Gal(b1-4)GlcNAc
Method in brief: as §1

B1: SfaEH (Escherichia coli), Q1RDG5 (protein)
chain: LLCRNNQTGQVFNSGDTSFRVNVSPVVQYDKSISVLDLSQLVSCQNEDSTGQNYDYLKILKGSGFSPALDTKTYGRLDFTSRPTGYARQLPLQFDLQVTEAFYQYGVWKPFPAKLYLYPAPGVFGKVINNGDLLATLYVNKFSTKGQEAGERNFTWRFYATNDVYIQTGTCRVSSNNVKVDLPSYPGGPVTVPLTVRCDQTQSVSYTLSGPVTGSGNTVFANTAASGSGGVGIQLSDNVGPVPAGQPRSLGQVGSSPVSLGLKASYALTGQASPTPGAVQSVINVTFSYN
glycan array binding signal (z-score) [1]: -0.532 | glycan array binding signal (z-score) [2]: -0.226 | glycan array binding signal (z-score) [3]: -0.098 | glycan array binding signal (z-score) [4]: -0.117 | glycan array binding signal (z-score) [5]: 0.525 | glycan array binding signal (z-score) [6]: -0.22 | glycan array binding signal (z-score) [7]: -0.413 | glycan array binding signal (z-score) [8]: -0.678 | glycan array binding signal (z-score) [9]: 0.788 | glycan array binding signal (z-score) [10]: 0.691 | glycan array binding signal (z-score) [11]: 0.357 | glycan array binding signal (z-score) [12]: -1.23 | glycan array binding signal (z-score) [13]: 0.301 | glycan array binding signal (z-score) [14]: -0.405 | glycan array binding signal (z-score) [15]: -0.93 | glycan array binding signal (z-score) [16]: -0.911 | glycan array binding signal (z-score) [17]: -0.638 | glycan array binding signal (z-score) [18]: 0.666 | glycan array binding signal (z-score) [19]: 1.21 | glycan array binding signal (z-score) [20]: 0.167 | glycan array binding signal (z-score) [21]: -0.768 | glycan array binding signal (z-score) [22]: 0.084 | glycan array binding signal (z-score) [23]: 0.14 | glycan array binding signal (z-score) [24]: 0.852 | glycan array binding signal (z-score) [25]: -0.144 | glycan array binding signal (z-score) [26]: -0.16 | glycan array binding signal (z-score) [27]: -0.305 | glycan array binding signal (z-score) [28]: -0.238 | glycan array binding signal (z-score) [29]: 1.43 | glycan array binding signal (z-score) [30]: -0.452
